Experimental data from US5076973A (Arizona Board of Regents, priority 1988, dated 1991).

Assay: general procedure: solution-phase peptide synthesis; diethyl phosphorocyanidate (DEPC)-triethylamine
Settings: for step yield: coupling step; for isolated yield: whole synthesis, overall

Substance	step yield [%]	isolated yield [%]	cyclisation yield (cyclisation step) [%]
N-t-Boc-L-Leu-L-(gln)Thz-(gly)Thz-L-Val-L-Pro-OMe	86	71	
N-t-Boc-L-(gln)Thz-(gly)Thz-L-Val-L-Pro-OMe	93		
PEPTIDE1{V.P.L.[glnThz].[glyThz]}$PEPTIDE1,PEPTIDE1,1:R1-5:R2$$$V2.0		41	76

Some peptides are written in HELM: one residue between dots, names in brackets for other building blocks, links after the first $.
